The list shows only some results of the screen, not a fair sample: it is rich in T/C values a quarter to a half above the control, in often repeated tests (any T/C) and in doses without a T/C. Other doses and runs of a compound stand elsewhere. T/C gives the treated animals as a percentage of the vehicle group. Some entries give survivors of the animals treated and no T/C: the source files T/C as zero there, which appears to mark a toxic dose or a test without result, not a measured value. Some survivor counts are full or nearly so, which does not show that the dose was tolerated: survival well below the control is almost never listed, so the zero probably covers shortened survival too. Counts of survivors are from the toxicity check (mostly the fifth day) where no day follows; animals may have died later. Schedules are NCI's codes, read here as Q, the interval in days (D) or hours (H), X, the number of doses. Some doses were run more than once; the results are listed from low to high. Some schedule codes hold Z or #, which are not explained here. For survival time, this PubChem deposit counts one and a half times the control or more as active, and values a quarter to a half above the control carry no call in these data; other NCI protocols may use other cut-offs. Some T/C values carry the count of animals alive at the toxicity check (mostly the fifth day); where none is given, no animal had died by that day. Signs of the kind (2×) give the number of equal values in this list.

For the assay, the system named is CD2F1 mice, L1210 leukemia ip, survival T/C. The assay is described as follows: NCI In Vivo Anticancer Drug Screen. Data for tumor model L1210 Leukemia (intraperitoneal) in CD2F1 (CDF1) mice. As to conditions: higher T/C = longer survival. The method in brief: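 Compound-dosed mice with transplantable tumor versus matched vehicle controls; endpoint ratio T/C reported.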

Where [1] appears, read: T/C endpoint: median survival time, dose: 16.0 mg/kg/injection, schedule: Q04DX002 (ip), vehicle: saline with Tween-80.

As for `S=C(N/N=C1/CCCC/C1=N/NC(=S)N1CCOCC1)N1CCOCC1`, the survivor count (T/C endpoint: median survival time, dose: 25.0 mg/kg/injection, schedule: Q01DX009 (ip), vehicle: saline with Tween-80) is reported as 4 of 6.
With `C[N+](C)=CN1c2ccccc2Sc2ccccc21`, under “T/C endpoint: mean survival time, dose: 400.0 mg/kg/injection, schedule: Q01DX009 (ip), vehicle: saline with Tween-80”, the survivor count is 2 of 6.
Consider `CC(C)CC1(C(C)C)C(=O)NC(=S)NC1=O`, for which the survivor count (T/C endpoint: mean survival time, dose: 80.0 mg/kg/injection, schedule: Q01DX001 (ip), vehicle: saline) is reported as 0 of 6.
Turning to `CC[C@@]1(O)C(=O)OCc2c1cc1n(c2=O)Cc2cc3ccccc3nc2-1`, the T/C reads like this: (T/C endpoint: mean survival time, dose: 6.25 mg/kg/injection, schedule: Q04DX003 (ip), vehicle: water) 146 % of control [5 of 6 alive]; (T/C endpoint: median survival time, dose: 1.0 mg/kg/injection, schedule: Q04DX002 (ip), vehicle: saline with Tween-80) 102, 110 (2×), 116, 122, 128 (2×), 135, 146, 147 % of control [5 of 6 alive]; (T/C endpoint: median survival time, dose: 1.25 mg/kg/injection, schedule: Q04DX002 (ip), vehicle: saline with Tween-80) 118 (2×), 119, 120, 122, 124, 127, 129, 131, 132, 156, 162 % of control; (T/C endpoint: median survival time, dose: 2.0 mg/kg/injection, schedule: Q04DX002 (ip), vehicle: saline with Tween-80) 113, 124, 125 [5 of 6 alive], 127, 133, 134, 135, 150, 154, 166 % of control; (T/C endpoint: median survival time, dose: 2.5 mg/kg/injection, schedule: Q04DX002 (ip), vehicle: saline with Tween-80, evaluated on day 22) 148 % of control; (T/C endpoint: median survival time, dose: 2.5 mg/kg/injection, schedule: Q04DX002 (ip), vehicle: saline with Tween-80, evaluated on day 30) 125, 129, 131, 136, 141, 142 (2×), 146, 147, 152, 154, 157, 162 % of control. In addition, the T/C was 157 % of control (T/C endpoint: median survival time, dose: 2.5 mg/kg/injection, schedule: Q04DX002 (ip), vehicle: saline with Tween-80, evaluated on day 36); 132 % of control (T/C endpoint: median survival time, dose: 2.5 mg/kg/injection, schedule: Q04DX002 (ip), vehicle: saline with Tween-80, evaluated on day 46); 114, 125, 131, 146 (2×), 147, 152, 177, 182, 205 % of control (T/C endpoint: median survival time, dose: 4.0 mg/kg/injection, schedule: Q04DX002 (ip), vehicle: saline with Tween-80); 166 % of control (T/C endpoint: median survival time, dose: 5.0 mg/kg/injection, schedule: Q04DX002 (ip), vehicle: saline with Tween-80, evaluated on day 22); 131, 142, 149, 153, 157, 162, 166 (3×), 185, 195, 202, 215 % of control (T/C endpoint: median survival time, dose: 5.0 mg/kg/injection, schedule: Q04DX002 (ip), vehicle: saline with Tween-80, evaluated on day 30); 178 % of control (T/C endpoint: median survival time, dose: 5.0 mg/kg/injection, schedule: Q04DX002 (ip), vehicle: saline with Tween-80, evaluated on day 36). Also, the T/C (T/C endpoint: median survival time, dose: 5.0 mg/kg/injection, schedule: Q04DX002 (ip), vehicle: saline with Tween-80, evaluated on day 46) was 153 % of control; the T/C (T/C endpoint: median survival time, dose: 8.0 mg/kg/injection, schedule: Q04DX002 (ip), vehicle: saline with Tween-80) was 100, 125, 159, 164, 179 (2×), 197, 229, 239, 303 % of control; the T/C (T/C endpoint: median survival time, dose: 10.0 mg/kg/injection, schedule: Q04DX002 (ip), vehicle: saline with Tween-80, evaluated on day 22) was 180 % of control; the T/C (T/C endpoint: median survival time, dose: 10.0 mg/kg/injection, schedule: Q04DX002 (ip), vehicle: saline with Tween-80, evaluated on day 30) is listed as 158, 160, 170, 175, 179, 181, 186, 189, 198, 219, 250, 267, 361 % of control; the T/C (T/C endpoint: median survival time, dose: 10.0 mg/kg/injection, schedule: Q04DX002 (ip), vehicle: saline with Tween-80, evaluated on day 36) was 208 % of control; the T/C (T/C endpoint: median survival time, dose: 10.0 mg/kg/injection, schedule: Q04DX002 (ip), vehicle: saline with Tween-80, evaluated on day 46) is 173 % of control. Also, the T/C (T/C endpoint: median survival time, dose: 15.0 mg/kg/injection, schedule: Q04DX002 (ip), vehicle: saline with Tween-80, evaluated on day 22) is 196 % of control; the T/C (T/C endpoint: median survival time, dose: 15.0 mg/kg/injection, schedule: Q04DX002 (ip), vehicle: saline with Tween-80, evaluated on day 30) is 200 % of control; the T/C (T/C endpoint: median survival time, dose: 15.0 mg/kg/injection, schedule: Q04DX002 (ip), vehicle: saline with Tween-80, evaluated on day 36) was 265 % of control; the T/C (T/C endpoint: median survival time, dose: 15.0 mg/kg/injection, schedule: Q04DX002 (ip), vehicle: saline with Tween-80, evaluated on day 46) is 215 % of control; the T/C under setting [1] was 138, 146, 186 % of control. The survivor count by setting is: (T/C endpoint: mean survival time, dose: 12.5 mg/kg/injection, schedule: Q04DX003 (ip), vehicle: other) 5 of 6; (T/C endpoint: mean survival time, dose: 25.0 mg/kg/injection, schedule: Q04DX003 (ip), vehicle: other) 1 of 6; (T/C endpoint: mean survival time, dose: 50.0 mg/kg/injection, schedule: Q04DX003 (ip), vehicle: other) 2 of 6; (T/C endpoint: mean survival time, dose: 100.0 mg/kg/injection, schedule: Q04DX003 (ip), vehicle: other) 0 of 6; (T/C endpoint: mean survival time, dose: 200.0 mg/kg/injection, schedule: Q04DX003 (ip), vehicle: other) 0 of 6; under setting [1], 6 of 6.
As for `COP1(=O)OCC(C(C)(C)C)CO1` (stereo not given), the survivor count is listed as 0 of 3 (T/C endpoint: mean survival time, dose: 50.0 mg/kg/injection, schedule: Q04DX002 (ip), vehicle: saline); 3 of 3 (T/C endpoint: mean survival time, dose: 100.0 mg/kg/injection, schedule: Q04DX002 (ip), vehicle: saline); 3 of 3 (T/C endpoint: mean survival time, dose: 200.0 mg/kg/injection, schedule: Q04DX002 (ip), vehicle: saline); 3 of 3 (T/C endpoint: mean survival time, dose: 400.0 mg/kg/injection, schedule: Q04DX002 (ip), vehicle: saline).
As to `N#CN=[N+]([O-])c1ccc(C(=O)O)cc1`, for the setting “T/C endpoint: median survival time, dose: 60.0 mg/kg/injection, schedule: Q01DX009 (ip), vehicle: Klucel (hydroxypropylcellulose) (HPC)”, the survivor count was 0 of 10.
On to `Cc1c([C@H](C)[C@@H]2NC[C@@H](C)C[C@H]2O)ccc2c1C[C@H]1[C@H]2CC=C2C[C@@H](O)CC[C@@]21C`, for which the survivor count was 0 of 6 (T/C endpoint: mean survival time, dose: 10.0 mg/kg/injection, schedule: Q01DX009 (ip), vehicle: Klucel (hydroxypropylcellulose) (HPC)); 0 of 6 (T/C endpoint: mean survival time, dose: 10.0 mg/kg/injection, schedule: Q04DX003 (ip), vehicle: Klucel (hydroxypropylcellulose) (HPC)); 0 of 6 (T/C endpoint: mean survival time, dose: 20.0 mg/kg/injection, schedule: Q04DX003 (ip), vehicle: Klucel (hydroxypropylcellulose) (HPC)); 0 of 6 (T/C endpoint: mean survival time, dose: 40.0 mg/kg/injection, schedule: Q04DX003 (ip), vehicle: Klucel (hydroxypropylcellulose) (HPC)); 0 of 6 (T/C endpoint: mean survival time, dose: 50.0 mg/kg/injection, schedule: Q01DX001 (ip), vehicle: saline with Tween-80); 0 of 6 (T/C endpoint: mean survival time, dose: 100.0 mg/kg/injection, schedule: Q01DX001 (ip), vehicle: saline with Tween-80). The survivor count is, setting by setting: (T/C endpoint: mean survival time, dose: 100.0 mg/kg/injection, schedule: Q04DX003 (ip), vehicle: Klucel (hydroxypropylcellulose) (HPC)) 0 of 6; (T/C endpoint: mean survival time, dose: 200.0 mg/kg/injection, schedule: Q01DX001 (ip), vehicle: saline with Tween-80) 0 of 6; (T/C endpoint: mean survival time, dose: 200.0 mg/kg/injection, schedule: Q04DX003 (ip), vehicle: Klucel (hydroxypropylcellulose) (HPC)) 0 of 6; (T/C endpoint: mean survival time, dose: 400.0 mg/kg/injection, schedule: Q04DX003 (ip), vehicle: Klucel (hydroxypropylcellulose) (HPC)) 0 of 6.
In the case of `CC(C)N=C(N)c1ccc(NC(=O)c2ccc(C(=O)Nc3ccc(C(N)=NC(C)C)cc3)cc2)cc1`, the survivor count by setting is: (T/C endpoint: mean survival time, dose: 12.5 mg/kg/injection, schedule: Q01DX Z (ip), vehicle: water) 2 of 6; (T/C endpoint: mean survival time, dose: 25.0 mg/kg/injection, schedule: Q01DX Z (ip), vehicle: water) 0 of 6; (T/C endpoint: mean survival time, dose: 50.0 mg/kg/injection, schedule: Q01DX Z (ip), vehicle: water) 0 of 6.
`Brc1ccc(N=C=C(c2ccccc2)c2ccccc2)cc1`: the survivor count (T/C endpoint: mean survival time, dose: 400.0 mg/kg/injection, schedule: Q04DX003 (ip), vehicle: saline with Tween-80) is reported as 0 of 6.
`CCCCNC(C)(C)C(SSSC(c1cccs1)C(C)(C)NCCCC)c1cccs1` (stereo not given): the survivor count (T/C endpoint: mean survival time, dose: 400.0 mg/kg/injection, schedule: Q01DX009 (ip), vehicle: saline sonified) was 4 of 6.
As to `CNC(=O)ON(C(C)=O)C(=O)NC`, the survivor count reads like this: (T/C endpoint: mean survival time, dose: 100.0 mg/kg/injection, schedule: Q01DX009 (ip), vehicle: saline) 2 of 6 and 3 of 6; (T/C endpoint: mean survival time, dose: 200.0 mg/kg/injection, schedule: Q01DX009 (ip), vehicle: saline) 0 of 6; (T/C endpoint: mean survival time, dose: 400.0 mg/kg/injection, schedule: Q01DX009 (ip), vehicle: saline) 0 of 6.

Values taken from PubChem BioAssay AID256 (DTP/NCI, 2004).
